# Inconclusive results, whose numbers are uncertain, are shown with a selection of clear calls. A potency beside an inconclusive call is a rough fit, not a confirmed value. Calls of active or inactive are those of the source. How the source made its calls: active means hit-call score of the fitted dose curve at least 0.9, where 1 is the maximum; inconclusive means response in the unintended direction; inactive means score below 0.9.
# Sequences of proteins named here, by UniProt entry; tags and fusion partners are left off.
# UniProt P10276, whole entry, looked up: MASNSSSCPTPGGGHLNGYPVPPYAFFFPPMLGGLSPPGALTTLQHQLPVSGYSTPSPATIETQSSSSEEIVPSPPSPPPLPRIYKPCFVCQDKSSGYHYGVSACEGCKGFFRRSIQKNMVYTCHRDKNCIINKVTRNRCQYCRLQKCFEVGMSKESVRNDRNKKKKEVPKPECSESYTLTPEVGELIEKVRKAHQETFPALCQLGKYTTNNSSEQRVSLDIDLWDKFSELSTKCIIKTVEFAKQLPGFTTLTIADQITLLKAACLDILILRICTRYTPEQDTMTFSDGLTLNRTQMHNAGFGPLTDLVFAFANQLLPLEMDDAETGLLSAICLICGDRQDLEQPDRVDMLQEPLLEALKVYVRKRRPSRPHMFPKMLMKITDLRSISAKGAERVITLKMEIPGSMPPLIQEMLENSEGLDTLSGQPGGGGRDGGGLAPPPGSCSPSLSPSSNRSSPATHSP
# Biological target: Retinoic acid receptor alpha (Homo sapiens) (UniProt P10276)
# Assay: NVS_NR_hRAR_Antagonist: NovaScreen (NVS) Nuclear Receptor Binding Assay for human Retinoic Acid Alpha Receptor Antagonism (RAR) (AID 2283358)
# Method: NVS_NR_hRAR_Antagonist is a biochemical, single-readout assay that uses extracted gene-proteins in a cell-free assay. Measurements were taken 2 hours after chemical dosing in a 384-well plate.NVS_NR_hRAR_Antagonist is one of one assay component(s) measured or calculated from the NVS_NR_hRAR_Antagonist assay. It is designed to make measurements of fluorescent resonance energy transfer, a form of binding reporter, as detected with fluorescent resonance energy transfer signals by Time-Resolved Fluorescence Resonance Energy Transfer (TR-FRET) technology.Data from the assay component NVS_NR_hRAR_Antagonist was analyzed into 1 assay endpoint. This assay endpoint, NVS_NR_hRAR_Antagonist, was analyzed in the positive analysis fitting direction relative to DMSO as the negative control and baseline of activity. Using a type of binding reporter, loss-of-signal activity can be used to understand changes in the binding as they relate to the gene RARA. Furthermore, this assay endpoint can be referred to as a primary readout, because the performed assay has only produced 1 assay endpoint. To generalize the intended target to other relatable targets, this assay endpoint is annotated to the nuclear receptor intended target family, where the subfamily is non-steroidal.
# Binding assays used specific radioligands (tritiated, iodinated) with non-radioactive competitive displacement ligands in agonist or antagonist protocols (as indicated) and various reference compounds and inhibitors to titrate specific binding to receptors and transporters. Most enzyme assays (CYPs, kinases, phosphatases, proteases, HDACs) used recombinant protein and specific substrates (fluorescence mostly, some colorimetric and radioactive) and inhibitors, followed by a biochemical separation of substrate and product. All assays for the biochemical HTS were initially run in duplicate at a single concentration (10 uM for CYP450 assays and 25 uM for all others). […] Each assay was run with positive and negative controls, and concurrent controls on every plate. The follow-up (secondary) screen tested active chemical-pairs in concentration series, as well as a few additional assays not tested in the primary screen, some selected negative inactives, and several cases re-run in the concentration series for confirmatory purposes.
SMILES,AC50,outcome
CCCCCCCC/C=C\CCCCCCCC(=O)N(C)CC(=O)O,inconclusive: 25 µM,
CCNc1nc(N)nc(Cl)n1,inconclusive: 25 µM,
CCCCCCCCC=CCCCCCCCC1=NCCN1CCO,active: 25 µM,
CCN(Cc1c(F)cccc1Cl)c1c([N+](=O)[O-])cc(C(F)(F)F)cc1[N+](=O)[O-],inconclusive: 4.07 µM,
CCSC(=O)N(CC(C)C)CC(C)C,inconclusive: 0.0152 µM,
O=C1OC(c2ccc(O)cc2)(c2ccc(O)cc2)c2ccccc21,,inactive
O=C(O)Cc1cc(I)c(Oc2ccc(O)c(I)c2)c(I)c1,,inactive
CCCCCCCCCCCCC[N+](C)(C)Cc1ccccc1,active: 9.07 µM,
CC1=C(/C=C/C(C)=C/C=C/C(C)=C/CO)C(C)(C)CCC1,,inactive
CN(C)c1ccc(N=NS(=O)(=O)O)cc1,inconclusive: 23.8 µM,
CC=Cc1ccc(O)c(OC)c1,inconclusive: 25 µM,
CCC(C)OC(=O)N1CCCCC1CCO (centres undefined),inconclusive: 25 µM,
O=C1OC2(c3ccccc31)c1cc(I)c(O)c(I)c1Oc1c2cc(I)c(O)c1I,active: 19.7 µM,
Cc1nc(-c2ccccn2)ncc1C(=O)Nn1cc(C)c2cc(F)ccc21,,inactive
CCN=C1C=CC(=C(c2ccc(N(CC)CC)cc2)c2ccc(N(CC)CC)cc2)c2ccccc21,inconclusive: 45.6 µM,
CCCCCCCCc1ccc(S(=O)(=O)O)cc1,active: 16.8 µM,
CCCCCCCCCCCCc1ccccc1S(=O)(=O)O,active: 19 µM,
COc1cc(C(C)C)c2c(c1)S(=O)(=O)N(COc1cc(=O)n3cccc(OCCN4CCCCC4)c3n1)C2=O,,inactive
CCO[Si](CC)(OCC)OCC,,inactive

# One compound at a time, from the list above.
# CCN=C1C=CC(=C(c2ccc(N(CC)CC)cc2)c2ccc(N(CC)CC)cc2)c2ccccc21 as listed: AC50: inconclusive: 45.6 µM
# COc1cc(C(C)C)c2c(c1)S(=O)(=O)N(COc1cc(=O)n3cccc(OCCN4CCCCC4)c3n1)C2=O as listed: outcome: inactive

# From PubChem BioAssay (EPA / NIEHS)
